Laboratory results as given in publication PMC10648221.
No constants are given. Whether binding was seen depends on the method and setting. In cells and extracts the contact can be indirect. Some results given as binding are weak or reduced against the parent protein; the word gives no strength.

Amino acid sequences for entries named in this document (tags omitted). Residues count along the entry.
UniProt P18510, residues 26-177: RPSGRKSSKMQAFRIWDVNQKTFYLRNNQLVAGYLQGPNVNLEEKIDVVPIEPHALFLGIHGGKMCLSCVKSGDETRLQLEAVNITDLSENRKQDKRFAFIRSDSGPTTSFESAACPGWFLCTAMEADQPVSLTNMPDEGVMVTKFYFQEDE
UniProt Q9Y4B6: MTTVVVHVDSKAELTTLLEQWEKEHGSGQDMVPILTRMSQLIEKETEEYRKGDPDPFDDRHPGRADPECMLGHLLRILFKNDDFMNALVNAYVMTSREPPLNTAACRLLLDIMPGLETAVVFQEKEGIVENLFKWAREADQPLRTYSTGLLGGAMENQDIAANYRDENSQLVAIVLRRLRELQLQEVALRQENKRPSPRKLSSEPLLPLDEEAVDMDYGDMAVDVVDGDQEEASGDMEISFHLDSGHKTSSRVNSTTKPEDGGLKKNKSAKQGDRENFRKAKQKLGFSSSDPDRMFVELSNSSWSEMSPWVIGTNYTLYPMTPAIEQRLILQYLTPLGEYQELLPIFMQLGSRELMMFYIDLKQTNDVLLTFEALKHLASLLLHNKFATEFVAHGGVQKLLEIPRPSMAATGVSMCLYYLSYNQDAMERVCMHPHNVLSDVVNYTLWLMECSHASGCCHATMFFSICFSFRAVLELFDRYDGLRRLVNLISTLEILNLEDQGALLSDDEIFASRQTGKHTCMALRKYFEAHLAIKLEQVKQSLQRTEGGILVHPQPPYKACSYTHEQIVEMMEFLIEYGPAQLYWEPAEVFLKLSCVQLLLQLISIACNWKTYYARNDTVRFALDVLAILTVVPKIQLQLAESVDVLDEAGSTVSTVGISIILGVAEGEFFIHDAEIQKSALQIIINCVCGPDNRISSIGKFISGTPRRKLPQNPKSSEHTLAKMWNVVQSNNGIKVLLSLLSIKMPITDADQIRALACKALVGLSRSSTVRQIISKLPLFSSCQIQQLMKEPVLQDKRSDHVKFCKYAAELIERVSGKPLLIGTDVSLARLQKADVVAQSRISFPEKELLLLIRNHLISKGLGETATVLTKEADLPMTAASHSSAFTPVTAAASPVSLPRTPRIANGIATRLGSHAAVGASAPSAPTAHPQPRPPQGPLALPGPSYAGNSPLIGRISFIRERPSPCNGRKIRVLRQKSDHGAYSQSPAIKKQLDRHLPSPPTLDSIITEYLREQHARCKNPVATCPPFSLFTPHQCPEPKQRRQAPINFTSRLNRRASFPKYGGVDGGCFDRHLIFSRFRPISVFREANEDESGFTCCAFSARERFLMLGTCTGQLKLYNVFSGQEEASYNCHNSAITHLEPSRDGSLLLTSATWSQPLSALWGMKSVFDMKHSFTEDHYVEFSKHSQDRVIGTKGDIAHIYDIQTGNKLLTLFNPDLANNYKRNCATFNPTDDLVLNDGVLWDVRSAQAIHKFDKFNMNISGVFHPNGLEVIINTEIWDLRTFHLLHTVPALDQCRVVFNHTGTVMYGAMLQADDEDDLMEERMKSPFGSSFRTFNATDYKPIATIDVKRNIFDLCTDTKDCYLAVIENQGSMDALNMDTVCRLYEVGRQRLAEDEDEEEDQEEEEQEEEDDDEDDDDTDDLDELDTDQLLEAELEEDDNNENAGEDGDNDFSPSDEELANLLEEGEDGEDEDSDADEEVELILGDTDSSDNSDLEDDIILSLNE
UniProt Q7Z494: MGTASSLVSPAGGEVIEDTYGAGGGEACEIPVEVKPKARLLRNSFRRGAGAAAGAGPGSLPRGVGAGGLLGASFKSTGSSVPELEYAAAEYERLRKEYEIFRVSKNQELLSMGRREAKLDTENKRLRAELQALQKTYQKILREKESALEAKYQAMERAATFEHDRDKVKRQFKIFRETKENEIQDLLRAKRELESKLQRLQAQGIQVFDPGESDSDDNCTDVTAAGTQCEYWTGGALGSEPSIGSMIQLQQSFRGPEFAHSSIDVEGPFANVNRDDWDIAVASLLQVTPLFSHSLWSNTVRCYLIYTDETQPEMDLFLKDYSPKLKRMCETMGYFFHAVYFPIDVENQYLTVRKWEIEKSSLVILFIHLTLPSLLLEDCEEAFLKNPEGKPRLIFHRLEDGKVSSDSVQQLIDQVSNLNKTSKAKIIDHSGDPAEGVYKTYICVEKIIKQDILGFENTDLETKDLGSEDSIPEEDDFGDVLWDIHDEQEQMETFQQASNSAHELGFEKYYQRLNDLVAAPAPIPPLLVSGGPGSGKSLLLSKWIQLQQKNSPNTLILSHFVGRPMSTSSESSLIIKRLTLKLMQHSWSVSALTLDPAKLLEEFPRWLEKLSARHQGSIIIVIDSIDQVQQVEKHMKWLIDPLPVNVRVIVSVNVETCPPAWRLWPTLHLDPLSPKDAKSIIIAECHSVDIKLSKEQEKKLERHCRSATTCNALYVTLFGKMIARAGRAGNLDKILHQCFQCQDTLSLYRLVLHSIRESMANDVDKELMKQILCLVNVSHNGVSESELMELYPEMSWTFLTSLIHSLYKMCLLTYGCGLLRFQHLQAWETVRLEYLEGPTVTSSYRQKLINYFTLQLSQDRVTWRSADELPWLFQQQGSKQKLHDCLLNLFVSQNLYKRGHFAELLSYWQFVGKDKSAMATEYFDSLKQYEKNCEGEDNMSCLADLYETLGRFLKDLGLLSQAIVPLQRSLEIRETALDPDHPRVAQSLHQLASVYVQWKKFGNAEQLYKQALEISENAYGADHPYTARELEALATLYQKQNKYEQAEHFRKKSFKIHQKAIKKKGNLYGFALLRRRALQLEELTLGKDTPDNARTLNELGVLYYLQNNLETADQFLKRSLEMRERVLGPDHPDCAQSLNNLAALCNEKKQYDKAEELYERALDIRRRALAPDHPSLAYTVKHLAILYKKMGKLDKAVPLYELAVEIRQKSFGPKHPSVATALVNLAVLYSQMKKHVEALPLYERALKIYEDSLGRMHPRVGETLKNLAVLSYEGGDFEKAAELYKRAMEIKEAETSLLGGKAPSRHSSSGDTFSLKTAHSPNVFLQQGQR
UniProt P00441: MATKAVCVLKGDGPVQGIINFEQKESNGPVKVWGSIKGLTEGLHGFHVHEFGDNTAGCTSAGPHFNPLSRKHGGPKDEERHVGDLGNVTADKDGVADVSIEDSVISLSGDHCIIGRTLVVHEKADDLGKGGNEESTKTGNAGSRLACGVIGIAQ

T1: SPRY domain-containing protein 7 (human) (UniProt Q5W111)
T1 sequence: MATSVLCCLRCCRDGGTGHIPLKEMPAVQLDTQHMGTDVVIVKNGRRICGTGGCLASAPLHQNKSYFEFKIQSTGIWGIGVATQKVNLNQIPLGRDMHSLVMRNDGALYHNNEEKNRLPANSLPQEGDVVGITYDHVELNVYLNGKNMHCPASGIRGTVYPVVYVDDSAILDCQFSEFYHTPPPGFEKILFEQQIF

T2: ARG1 (human (endogenous in KM12C, KM12SM, SW480, SW620)) (UniProt P05089)
T2 sequence: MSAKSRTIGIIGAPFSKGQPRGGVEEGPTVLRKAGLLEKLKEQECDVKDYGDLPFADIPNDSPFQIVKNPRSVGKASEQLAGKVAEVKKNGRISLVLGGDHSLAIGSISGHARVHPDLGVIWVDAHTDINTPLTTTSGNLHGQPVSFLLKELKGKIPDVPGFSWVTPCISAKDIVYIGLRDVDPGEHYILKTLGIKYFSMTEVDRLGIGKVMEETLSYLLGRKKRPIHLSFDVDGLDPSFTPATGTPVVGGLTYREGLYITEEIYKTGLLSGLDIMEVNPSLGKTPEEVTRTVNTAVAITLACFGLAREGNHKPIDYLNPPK


Experiments:
[1] = target: T1, SPRY domain-containing protein 7 (human); test: co-IP; second IP with anti-SPRYD7 antibody from extracts of KM12C, KM12SM, SW480 and SW620 cells stably overexpressing SPRYD7; Western blot with antibodies against the candidate proteins
[2] = target: IL1RN (human (endogenous in KM12C, KM12SM, SW480, SW620)) (UniProt P18510); test: co-IP; cross-validation: IP with antibodies specific to IL1RN or ARG1, Western blot with the anti-SPRYD7 antibody
[3] = target: T2, ARG1 (human (endogenous in KM12C, KM12SM, SW480, SW620)); test: as above

Row | binding [1] | binding [2] | binding [3] | Molecule
1 | binds |  |  | VPRBP (from UniProt Q9Y4B6 1-1507)
2 | binds |  |  | NPHP3 (from UniProt Q7Z494 1-1330)
3 | binds |  |  | SOD1 (from UniProt P00441 1-154)
4 | binds |  |  | IL1RN (from UniProt P18510 26-177)
5 | binds |  |  | TYMP (protein, UniProt P19971 11-482) APPAPGDFSGEGSQGLPDPSPEPKQLPELIRMKRDGGRLSEADIRGFVAAVVNGSAQGAQIGAMLMAIRLRGMDLEETSVLTQALAQSGQQLEWPEAWRQQLVDKHSTGGVGDKVSLVLAPALAACGCKVPMISGRGLGHTGGTLDKLESIPGFNVIQSPEQMQVLLDQAGCCIVGQSEQLVPADGILYAARDVTATVDSLPLITASILSKKLVEGLSALVVDVKFGGAAVFPNQEQARELAKTLVGVGASLGLRVAAALTAMDKPLGRCVGHALEVEEALLCMDGAGPPDLRDLVTTLGGALLWLSGHAGTQAQGAARVAAALDDGSALGRFERMLAAQGVDPGLARALCSGSPAERRQLLPRAREQEELLAPADGTVELVRALPLALVLHELGAGRSRAGEPLRLGVGAELLVDVGQRLRRGTPWLRVHRDGPALSGPQSRALQEALVLSDRAPFAAPSPFAELVLPPQQ
6 | binds |  |  | A2ML1 (protein, UniProt A8K2U0 18-1454) EELPNYLVTLPARLNFPSVQKVCLDLSPGYSDVKFTVTLETKDKTQKLLEYSGLKKRHLHCISFLVPPPAGGTEEVATIRVSGVGNNISFEEKKKVLIQRQGNGTFVQTDKPLYTPGQQVYFRIVTMDSNFVPVNDKYSMVELQDPNSNRIAQWLEVVPEQGIVDLSFQLAPEAMLGTYTVAVAEGKTFGTFSVEEYVLPKFKVEVVEPKELSTVQESFLVKICCRYTYGKPMLGAVQVSVCQKANTYWYREVEREQLPDKCRNLSGQTDKTGCFSAPVDMATFDLIGYAYSHQINIVATVVEEGTGVEANATQNIYISPQMGSMTFEDTSNFYHPNFPFSGKIRVRGHDDSFLKNHLVFLVIYGTNGTFNQTLVTDNNGLAPFTLETSGWNGTDVSLEGKFQMEDLVYNPEQVPRYYQNAYLHLRPFYSTTRSFLGIHRLNGPLKCGQPQEVLVDYYIDPADASPDQEISFSYYLIGKGSLVMEGQKHLNSKKKGLKASFSLSLTFTSRLAPDPSLVIYAIFPSGGVVADKIQFSVEMCFDNQVSLGFSPSQQLPGAEVELQLQAAPGSLCALRAVDESVLLLRPDRELSNRSVYGMFPFWYGHYPYQVAEYDQCPVSGPWDFPQPLIDPMPQGHSSQRSIIWRPSFSEGTDLFSFFRDVGLKILSNAKIKKPVDCSHRSPEYSTAMGAGGGHPEAFESSTPLHQAEDSQVRQYFPETWLWDLFPIGNSGKEAVHVTVPDAITEWKAMSFCTSQSRGFGLSPTVGLTAFKPFFVDLTLPYSVVRGESFRLTATIFNYLKDCIRVQTDLAKSHEYQLESWADSQTSSCLCADDAKTHHWNITAVKLGHINFTISTKILDSNEPCGGQKGFVPQKGRSDTLIKPVLVKPEGVLVEKTHSSLLCPKGKVASESVSLELPVDIVPDSTKAYVTVLGDIMGTALQNLDGLVQMPSGCGEQNMVLFAPIIYVLQYLEKAGLLTEEIRSRAVGFLEIGYQKELMYKHSNGSYSAFGERDGNGNTWLTAFVTKCFGQAQKFIFIDPKNIQDALKWMAGNQLPSGCYANVGNLLHTAMKGGVDDEVSLTAYVTAALLEMGKDVDDPMVSQGLRCLKNSATSTTNLYTQALLAYIFSLAGEMDIRNILLKQLDQQAIISGESIYWSQKPTPSSNASPWSEPAAVDVELTAYALLAQLTKPSLTQKEIAKATSIVAWLAKQHNAYGGFSSTQDTVVALQALAKYATTAYMPSEEINLVVKSTENFQRTFNIQSVNRLVFQQDTLPNVPGMYTLEASGQGCVYVQTVLRYNILPPTNMKTFSLSVEIGKARCEQPTSPRSLTLTIHTSYVGSRSSSNMAIVEVKMLSGFSPMEGTNQLLLQQPLVKKVEFGTDTLNIYLDELIKNTQTYTFTISQSVLVTNLKPATIKVYDYYLPDEQATIQYSDPCE
7 | binds |  |  | ARG1 (protein, UniProt P05089 1-322) MSAKSRTIGIIGAPFSKGQPRGGVEEGPTVLRKAGLLEKLKEQECDVKDYGDLPFADIPNDSPFQIVKNPRSVGKASEQLAGKVAEVKKNGRISLVLGGDHSLAIGSISGHARVHPDLGVIWVDAHTDINTPLTTTSGNLHGQPVSFLLKELKGKIPDVPGFSWVTPCISAKDIVYIGLRDVDPGEHYILKTLGIKYFSMTEVDRLGIGKVMEETLSYLLGRKKRPIHLSFDVDGLDPSFTPATGTPVVGGLTYREGLYITEEIYKTGLLSGLDIMEVNPSLGKTPEEVTRTVNTAVAITLACFGLAREGNHKPIDYLNPPK
8 | binds |  |  | BLMH (protein, UniProt Q13867 1-455) MSSSGLNSEKVAALIQKLNSDPQFVLAQNVGTTHDLLDICLKRATVQRAQHVFQHAVPQEGKPITNQKSSGRCWIFSCLNVMRLPFMKKLNIEEFEFSQSYLFFWDKVERCYFFLSAFVDTAQRKEPEDGRLVQFLLMNPANDGGQWDMLVNIVEKYGVIPKKCFPESYTTEATRRMNDILNHKMREFCIRLRNLVHSGATKGEISATQDVMMEEIFRVVCICLGNPPETFTWEYRDKDKNYQKIGPITPLEFYREHVKPLFNMEDKICLVNDPRPQHKYNKLYTVEYLSNMVGGRKTLYNNQPIDFLKKMVAASIKDGEAVWFGCDVGKHFNSKLGLSDMNLYDHELVFGVSLKNMNKAERLTFGESLMTHAMTFTAVSEKDDQDGAFTKWRVENSWGEDHGHKGYLCMTDEWFSEYVYEVVVDRKHVPEEVLAVLEQEPIILPAWDPMGALAE
9 | binds |  |  | CAPNS2 (protein, UniProt Q96L46 1-248) MFLAKALLEGADRGLGEALGGLFGGGGQRREGGGRNIGGIVGGIVNFISEAAAAQYTPEPPPTQQHFTSVEASESEEVRRFRQQFTQLAGPDMEVGATDLMNILNKVLSKHKDLKTDGFSLDTCRSIVSVMDSDTTGKLGFEEFKYLWNNIKKWQCVYKQYDRDHSGSLGSSQLRGALQAAGFQLNEQLYQMIVRRYANEDGDMDFNNFISCLVRLDAMFRAFKSLDRDRDGLIQVSIKEWLQLTMYS
10 |  | binds | binds | SPRY domain-containing protein 7 (protein, UniProt Q5W111 1-196) MATSVLCCLRCCRDGGTGHIPLKEMPAVQLDTQHMGTDVVIVKNGRRICGTGGCLASAPLHQNKSYFEFKIQSTGIWGIGVATQKVNLNQIPLGRDMHSLVMRNDGALYHNNEEKNRLPANSLPQEGDVVGITYDHVELNVYLNGKNMHCPASGIRGTVYPVVYVDDSAILDCQFSEFYHTPPPGFEKILFEQQIF
